Measured values published in PMC5595887.
Results are given in words; binding and its absence hold for the method and conditions named. Binding seen in cells or lysates may run through a third protein. Binding calls can cover weak binding; strength is not graded here. Tags and fused reporters may be left off the sequences shown.

Target: DsRED-fused ATG10S (human)
Assay: co-IP; HepG2 cells co-transfected with egfp-fused il28a and DsRED-fused atg10s plasmids; RIPA lysate; immunoprecipitation with anti-RFP antibody, protein A/G agarose beads, 4 °C, Western blot

- binding: binds
B1: EGFP-fused IL28A (protein, UniProt Q8IZJ0 26-200)
chain: VPVARLHGALPDARGCHIAQFKSLSPQELQAFKRAKDALEESLLLKDCRCHSRLFPRTWDLRQLQVRERPMALEAELALTLKVLEATADTDPALVDVLDQPLHTLHHILSQFRACIQPQPTAGPRTRGRLHHWLYRLQEAPKKESPGCLEASVTFNLFRLLTRDLNCVASGDLCV
